Two substances from paper PMC4826232 can be followed below.

Amino acid sequences for entries named in this document (tags omitted). A change or cut given only in a name is not applied to a line headed by its entry.
UniProt P30086: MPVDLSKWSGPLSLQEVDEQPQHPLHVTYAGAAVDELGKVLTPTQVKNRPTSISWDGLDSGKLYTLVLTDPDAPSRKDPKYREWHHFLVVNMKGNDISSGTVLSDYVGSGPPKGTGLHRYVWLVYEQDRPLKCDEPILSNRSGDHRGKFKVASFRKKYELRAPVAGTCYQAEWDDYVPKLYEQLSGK
UniProt P46531: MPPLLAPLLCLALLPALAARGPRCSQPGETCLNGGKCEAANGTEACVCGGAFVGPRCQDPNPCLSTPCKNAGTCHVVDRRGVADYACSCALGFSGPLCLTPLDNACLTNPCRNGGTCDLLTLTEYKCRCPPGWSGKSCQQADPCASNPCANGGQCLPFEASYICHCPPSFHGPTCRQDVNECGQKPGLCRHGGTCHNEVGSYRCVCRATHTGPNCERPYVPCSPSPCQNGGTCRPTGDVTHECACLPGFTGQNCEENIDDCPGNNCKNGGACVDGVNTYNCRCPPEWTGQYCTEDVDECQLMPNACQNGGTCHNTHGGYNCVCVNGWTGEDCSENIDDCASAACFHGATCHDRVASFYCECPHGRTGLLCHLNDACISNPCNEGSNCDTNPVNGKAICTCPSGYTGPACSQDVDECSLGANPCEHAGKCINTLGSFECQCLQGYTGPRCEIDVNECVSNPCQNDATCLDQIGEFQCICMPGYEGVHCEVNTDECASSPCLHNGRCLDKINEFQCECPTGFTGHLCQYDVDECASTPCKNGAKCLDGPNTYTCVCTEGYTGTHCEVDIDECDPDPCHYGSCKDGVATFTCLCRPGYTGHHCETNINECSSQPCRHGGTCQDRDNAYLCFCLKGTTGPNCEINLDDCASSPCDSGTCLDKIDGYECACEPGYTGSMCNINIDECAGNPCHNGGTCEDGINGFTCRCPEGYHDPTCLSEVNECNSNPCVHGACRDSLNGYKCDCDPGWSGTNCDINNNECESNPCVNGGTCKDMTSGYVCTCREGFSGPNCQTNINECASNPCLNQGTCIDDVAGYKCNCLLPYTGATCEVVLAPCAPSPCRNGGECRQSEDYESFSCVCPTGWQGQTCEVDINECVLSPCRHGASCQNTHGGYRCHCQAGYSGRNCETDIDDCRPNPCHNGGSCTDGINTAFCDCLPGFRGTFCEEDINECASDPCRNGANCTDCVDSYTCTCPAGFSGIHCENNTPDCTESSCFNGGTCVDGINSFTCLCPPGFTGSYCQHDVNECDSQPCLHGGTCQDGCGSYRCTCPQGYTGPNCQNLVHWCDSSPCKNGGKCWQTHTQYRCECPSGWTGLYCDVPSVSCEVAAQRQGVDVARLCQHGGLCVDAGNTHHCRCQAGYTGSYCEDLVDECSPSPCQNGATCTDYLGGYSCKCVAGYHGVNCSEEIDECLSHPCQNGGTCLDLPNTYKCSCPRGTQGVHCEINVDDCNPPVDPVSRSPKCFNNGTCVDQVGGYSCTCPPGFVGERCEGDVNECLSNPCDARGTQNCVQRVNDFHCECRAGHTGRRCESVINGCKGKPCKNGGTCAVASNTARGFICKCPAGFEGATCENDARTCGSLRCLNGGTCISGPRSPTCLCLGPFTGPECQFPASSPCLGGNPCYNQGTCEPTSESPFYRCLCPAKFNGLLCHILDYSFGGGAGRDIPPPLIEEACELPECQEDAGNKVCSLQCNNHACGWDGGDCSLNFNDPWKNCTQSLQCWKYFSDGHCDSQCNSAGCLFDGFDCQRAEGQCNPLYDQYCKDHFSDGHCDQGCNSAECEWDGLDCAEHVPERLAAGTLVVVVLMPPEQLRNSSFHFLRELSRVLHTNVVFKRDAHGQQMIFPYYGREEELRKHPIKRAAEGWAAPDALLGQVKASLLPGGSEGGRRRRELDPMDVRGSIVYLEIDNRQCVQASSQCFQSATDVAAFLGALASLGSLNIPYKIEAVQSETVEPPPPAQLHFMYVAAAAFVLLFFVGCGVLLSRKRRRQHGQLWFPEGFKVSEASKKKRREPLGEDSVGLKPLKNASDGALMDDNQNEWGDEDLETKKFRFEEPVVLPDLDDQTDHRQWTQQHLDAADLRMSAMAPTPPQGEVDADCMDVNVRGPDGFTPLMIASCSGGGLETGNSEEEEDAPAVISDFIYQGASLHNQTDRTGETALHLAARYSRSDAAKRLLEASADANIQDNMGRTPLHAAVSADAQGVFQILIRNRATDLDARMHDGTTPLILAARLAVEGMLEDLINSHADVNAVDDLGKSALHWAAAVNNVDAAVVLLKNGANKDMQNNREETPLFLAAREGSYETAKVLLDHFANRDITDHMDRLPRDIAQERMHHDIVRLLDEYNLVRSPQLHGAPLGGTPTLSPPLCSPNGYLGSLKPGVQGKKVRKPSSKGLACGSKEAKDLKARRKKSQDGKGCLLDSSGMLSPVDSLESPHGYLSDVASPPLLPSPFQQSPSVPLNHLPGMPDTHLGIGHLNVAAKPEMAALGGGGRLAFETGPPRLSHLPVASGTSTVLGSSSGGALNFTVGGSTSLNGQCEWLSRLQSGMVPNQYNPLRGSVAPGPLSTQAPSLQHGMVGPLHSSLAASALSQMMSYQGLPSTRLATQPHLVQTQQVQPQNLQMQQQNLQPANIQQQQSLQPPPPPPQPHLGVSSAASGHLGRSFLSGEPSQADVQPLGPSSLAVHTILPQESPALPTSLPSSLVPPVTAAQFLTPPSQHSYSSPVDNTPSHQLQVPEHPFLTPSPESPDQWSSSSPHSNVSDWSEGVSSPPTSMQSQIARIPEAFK

This assay has as its target FLAG-tagged Raf kinase inhibitory protein (RKIP) (human) (UniProt P30086). Kind of assay: co-IP; total cell lysates (1 mg) of H1299 or HeLa cells stably overexpressing FLAG-RKIP; IP with anti-FLAG M2 agarose beads, immunoblot with anti-Notch1 antibodies; control cells with pcDNA.

These are yes or no findings as the source states them, for the method shown. In cells and extracts the contact can be indirect. Some binding calls cover weakened binding; strength is not graded here.

On to “full-length (FL) Notch1 (300 kDa) (from UniProt P46531 19-2555) (receptor)”, for which the binding entry is on record as “binds”.
“Notch1 intracellular domain (NICD), 110 kDa fragment (from UniProt P46531 1754-2555) (domain or fragment)”: the binding entry was “no binding”.
